The record followed here is paper PMC5008806.

Protein sequences, listed by entry. Tags and fused reporters are not part of them.
UniProt Q02248: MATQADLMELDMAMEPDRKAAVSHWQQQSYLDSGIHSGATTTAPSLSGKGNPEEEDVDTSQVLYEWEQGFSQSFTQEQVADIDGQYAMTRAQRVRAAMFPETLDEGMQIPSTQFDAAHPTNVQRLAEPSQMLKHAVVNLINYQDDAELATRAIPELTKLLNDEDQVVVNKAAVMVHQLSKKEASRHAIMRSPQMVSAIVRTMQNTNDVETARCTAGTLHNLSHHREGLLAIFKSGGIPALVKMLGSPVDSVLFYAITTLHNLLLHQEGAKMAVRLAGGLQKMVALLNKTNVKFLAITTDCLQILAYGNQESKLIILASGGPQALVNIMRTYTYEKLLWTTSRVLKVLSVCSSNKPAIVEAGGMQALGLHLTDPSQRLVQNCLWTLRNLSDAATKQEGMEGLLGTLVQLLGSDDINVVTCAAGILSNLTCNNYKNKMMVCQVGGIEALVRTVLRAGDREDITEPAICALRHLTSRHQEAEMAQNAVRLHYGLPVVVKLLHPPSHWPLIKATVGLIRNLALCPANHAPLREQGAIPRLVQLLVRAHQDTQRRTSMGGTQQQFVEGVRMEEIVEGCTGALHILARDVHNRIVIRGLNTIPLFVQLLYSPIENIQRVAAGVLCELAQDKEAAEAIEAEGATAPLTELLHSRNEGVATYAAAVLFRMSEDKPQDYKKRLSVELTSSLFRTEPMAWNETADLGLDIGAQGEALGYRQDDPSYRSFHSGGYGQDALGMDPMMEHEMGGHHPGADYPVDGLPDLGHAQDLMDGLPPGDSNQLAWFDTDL

Results are given in words; binding and its absence hold for the method and conditions named. In cells and extracts the contact can be indirect. Some entries that bind do so weakly or less than the wild type.

For experiment [1], the target named is T1, p120/σ-catenin (endogenous, mouse) (mouse (endogenous in sciatic nerve and Schwann cells)) (UniProt P30999).
T1 sequence: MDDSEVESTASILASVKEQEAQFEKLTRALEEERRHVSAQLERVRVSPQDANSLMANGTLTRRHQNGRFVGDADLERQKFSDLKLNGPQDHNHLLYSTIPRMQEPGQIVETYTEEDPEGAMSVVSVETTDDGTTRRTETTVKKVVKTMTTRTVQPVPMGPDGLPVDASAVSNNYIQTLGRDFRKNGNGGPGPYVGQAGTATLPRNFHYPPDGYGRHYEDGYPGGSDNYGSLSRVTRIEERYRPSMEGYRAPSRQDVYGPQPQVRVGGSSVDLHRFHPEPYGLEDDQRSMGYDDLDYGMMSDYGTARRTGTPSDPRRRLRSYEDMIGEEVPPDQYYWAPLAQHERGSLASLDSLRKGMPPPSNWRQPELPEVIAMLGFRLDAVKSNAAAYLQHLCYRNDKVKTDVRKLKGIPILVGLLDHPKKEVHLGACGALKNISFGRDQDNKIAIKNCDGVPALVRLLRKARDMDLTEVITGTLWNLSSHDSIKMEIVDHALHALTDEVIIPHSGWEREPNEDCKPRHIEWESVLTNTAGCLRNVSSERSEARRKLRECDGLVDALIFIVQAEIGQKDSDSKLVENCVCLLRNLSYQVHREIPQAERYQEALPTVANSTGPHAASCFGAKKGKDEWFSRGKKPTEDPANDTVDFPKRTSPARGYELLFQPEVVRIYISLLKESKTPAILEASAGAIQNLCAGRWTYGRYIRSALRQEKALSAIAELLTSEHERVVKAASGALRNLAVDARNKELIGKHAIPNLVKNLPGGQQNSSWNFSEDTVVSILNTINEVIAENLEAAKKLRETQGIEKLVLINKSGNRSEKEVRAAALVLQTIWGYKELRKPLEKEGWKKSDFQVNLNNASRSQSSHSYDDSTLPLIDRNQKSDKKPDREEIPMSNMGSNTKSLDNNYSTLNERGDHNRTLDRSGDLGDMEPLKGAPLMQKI
Kind of experiment: co-IP; endogenous proteins in sciatic nerve lysates of Pmp22+/+ mice (P10, P15, 3 and 6 months old, by panel); IP with anti-E-cadherin, anti-p120/σ-catenin or anti-β-catenin antibody, control IgG; overnight at 4°C, protein G agarose beads; immunoblot.

Experiment [2] concerns the target β-catenin (endogenous, mouse) (mouse (endogenous in sciatic nerve and Schwann cells)) (UniProt Q02248). Description: co-IP; endogenous proteins in conditionally immortalized mouse Schwann cells (Pmp22+/+/SV40tg); β-catenin pulled down, E-cadherin and P120 detected.
The target is the same in experiment [3]. Kind of experiment: co-IP; endogenous proteins in sciatic nerve lysates of Pmp22+/+ mice (P10, P15, 3 and 6 months old, by panel); IP with anti-E-cadherin, anti-p120/σ-catenin or anti-β-catenin antibody, control IgG; overnight at 4°C, protein G agarose beads; immunoblot.

Take “β-catenin (endogenous, mouse) (from UniProt Q02248 1-781)”: the binding entry in experiment [1] is on record as “binds”.

B1: p120/σ-catenin (endogenous, mouse) (protein, UniProt P30999 1-938)
chain: T1 sequence
Turning to B1, the binding entry in experiment [2] and in experiment [3] was “binds” throughout.
